# Source: doi:10.1101/209262
# Amino acid sequences for entries named in this document (tags omitted). Residues count along the entry.
# UniProt P26039, residues 1-433: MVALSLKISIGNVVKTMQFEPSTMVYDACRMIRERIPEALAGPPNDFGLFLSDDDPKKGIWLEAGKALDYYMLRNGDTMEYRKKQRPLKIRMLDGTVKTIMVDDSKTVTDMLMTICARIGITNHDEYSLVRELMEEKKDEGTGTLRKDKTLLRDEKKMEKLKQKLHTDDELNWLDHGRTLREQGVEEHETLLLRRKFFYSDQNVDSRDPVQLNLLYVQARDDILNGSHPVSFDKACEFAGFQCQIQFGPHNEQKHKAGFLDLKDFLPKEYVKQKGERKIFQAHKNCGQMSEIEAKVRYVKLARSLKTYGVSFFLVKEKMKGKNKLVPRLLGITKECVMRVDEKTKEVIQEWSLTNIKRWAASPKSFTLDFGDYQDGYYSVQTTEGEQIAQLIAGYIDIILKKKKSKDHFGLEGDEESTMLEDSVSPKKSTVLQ
# Like-named read-outs stand apart in the source and are kept apart here. These are yes or no findings as the source states them, for the method shown. Some results given as binding are weak or reduced against the parent protein; the word gives no strength. For some of these results: Tags and fused reporters may be left off the sequences shown.
# B1: GST-Fos-β1 integrin chimera (protein)
# chain: GSGGGASLDELEAEIEQLEEENYALEKEIEDLEKELEKLGAPGTGPDIIPIVAGVVAGIVLIGLALLLIWKLLMIIHDRREFAKFEKEKMNAKWDTGENPIYKSAVTTVVNPKYEGK
# How the values were obtained:
# [1] = biological target: GST-Fos-β1 integrin chimera (human); test: ProLIF
# [2] = biological target: GST-Fos-β1 integrin chimera (human); test: ProLIF; remark: listed apart in the source
# [3] = biological target: GST-Fos-β1 integrin chimera (human); test: ProLIF; remark: listed apart in the source
# [4] = biological target: MBP-Jun-α5 integrin chimera (human) (UniProt P08648); test: co-IP
binding [1],binding [2],binding [3],binding [4],Molecule
binds,binds,binds,,Talin FERM-EGFP (mouse talin1 residues 1-433) (from UniProt P26039 1-433) (domain or fragment)
,,,binds,B1
